According to publication PMC7401755:
These are yes or no findings as the source states them, for the method shown. In cells and extracts the contact can be indirect. Some results given as binding are weak or reduced against the parent protein; the word gives no strength. For some of these results: Tags and fused reporters may be left off the sequences shown.

By UniProt entry, the sequences of proteins in these tests, tags left out.
UniProt O14939: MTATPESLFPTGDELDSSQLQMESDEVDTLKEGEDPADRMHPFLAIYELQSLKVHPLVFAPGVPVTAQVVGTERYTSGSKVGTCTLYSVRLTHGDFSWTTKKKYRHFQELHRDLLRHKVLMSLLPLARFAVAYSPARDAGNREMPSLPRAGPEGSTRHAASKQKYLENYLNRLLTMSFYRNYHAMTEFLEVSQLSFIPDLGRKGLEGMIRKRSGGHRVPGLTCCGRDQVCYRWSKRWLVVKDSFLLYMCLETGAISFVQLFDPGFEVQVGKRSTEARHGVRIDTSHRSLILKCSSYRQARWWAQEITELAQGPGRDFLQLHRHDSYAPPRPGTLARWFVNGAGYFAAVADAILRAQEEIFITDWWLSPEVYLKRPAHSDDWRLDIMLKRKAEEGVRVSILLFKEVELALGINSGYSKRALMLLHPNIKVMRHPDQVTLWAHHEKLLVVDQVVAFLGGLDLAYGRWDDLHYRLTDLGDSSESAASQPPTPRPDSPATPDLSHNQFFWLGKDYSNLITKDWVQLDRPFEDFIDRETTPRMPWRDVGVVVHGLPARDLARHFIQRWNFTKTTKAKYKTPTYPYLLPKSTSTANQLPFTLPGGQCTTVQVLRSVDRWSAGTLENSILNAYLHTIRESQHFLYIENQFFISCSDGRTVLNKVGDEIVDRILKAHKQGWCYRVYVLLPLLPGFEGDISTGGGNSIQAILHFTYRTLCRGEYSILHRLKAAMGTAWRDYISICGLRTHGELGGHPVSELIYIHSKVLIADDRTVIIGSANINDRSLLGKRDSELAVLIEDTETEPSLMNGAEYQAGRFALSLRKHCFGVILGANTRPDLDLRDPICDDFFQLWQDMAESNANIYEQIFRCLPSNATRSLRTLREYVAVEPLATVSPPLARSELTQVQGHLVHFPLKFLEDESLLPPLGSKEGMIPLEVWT
UniProt P97813: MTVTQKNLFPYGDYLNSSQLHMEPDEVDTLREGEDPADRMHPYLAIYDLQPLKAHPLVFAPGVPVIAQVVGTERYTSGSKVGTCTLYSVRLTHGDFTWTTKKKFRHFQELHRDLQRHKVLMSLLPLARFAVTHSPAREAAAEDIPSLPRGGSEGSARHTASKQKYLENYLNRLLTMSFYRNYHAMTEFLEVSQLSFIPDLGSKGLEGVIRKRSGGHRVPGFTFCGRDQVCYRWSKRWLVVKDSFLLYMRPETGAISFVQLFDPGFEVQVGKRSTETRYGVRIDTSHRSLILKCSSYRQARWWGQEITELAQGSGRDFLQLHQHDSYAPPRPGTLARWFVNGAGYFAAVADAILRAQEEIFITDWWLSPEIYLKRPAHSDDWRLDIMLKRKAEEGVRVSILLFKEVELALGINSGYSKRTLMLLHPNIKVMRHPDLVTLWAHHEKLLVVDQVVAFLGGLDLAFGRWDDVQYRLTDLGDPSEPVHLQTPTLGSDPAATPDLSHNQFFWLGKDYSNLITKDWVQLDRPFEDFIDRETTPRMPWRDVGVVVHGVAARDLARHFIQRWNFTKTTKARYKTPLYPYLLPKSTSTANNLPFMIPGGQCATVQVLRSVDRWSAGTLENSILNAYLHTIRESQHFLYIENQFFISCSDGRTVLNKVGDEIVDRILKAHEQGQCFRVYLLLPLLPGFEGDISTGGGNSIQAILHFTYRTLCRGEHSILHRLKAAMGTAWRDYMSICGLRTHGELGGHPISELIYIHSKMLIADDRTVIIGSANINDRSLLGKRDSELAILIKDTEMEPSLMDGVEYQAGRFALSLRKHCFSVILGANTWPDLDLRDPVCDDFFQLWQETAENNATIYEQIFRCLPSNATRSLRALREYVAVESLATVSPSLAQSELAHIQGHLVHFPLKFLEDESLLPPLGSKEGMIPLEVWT

What was measured:
[1] = target: T1, GST-tagged mouse AQP3 (mouse) (UniProt Q8R2N1); experiment: co-IP; Sf9 cells infected 48 h with baculovirus for AQP3-GST, PLD2-His or both; lysed in RIPA buffer, precleared; IP with anti-GST or anti-PLD2 antibody 2 h at 4°C, IgG-coated Dynal beads, four washes with RIPA buffer; immunoblot with anti-GST or anti-His
T1 sequence: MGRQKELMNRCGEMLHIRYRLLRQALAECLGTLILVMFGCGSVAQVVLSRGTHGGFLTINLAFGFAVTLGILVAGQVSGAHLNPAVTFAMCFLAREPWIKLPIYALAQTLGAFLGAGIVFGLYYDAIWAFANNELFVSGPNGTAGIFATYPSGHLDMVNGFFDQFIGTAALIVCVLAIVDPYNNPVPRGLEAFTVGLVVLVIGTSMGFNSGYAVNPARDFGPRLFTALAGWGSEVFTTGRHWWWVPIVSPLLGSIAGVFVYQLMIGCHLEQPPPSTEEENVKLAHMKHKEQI

[2] = target: T2, aquaporin-3 (AQP3), endogenous in immortalized human corneal epithelial (IHCE) cells (human (endogenous in IHCE cells)) (UniProt Q92482); experiment: co-IP; endogenous proteins from IHCE cell lysates in RIPA buffer; immunoprecipitation with an antibody recognizing AQP3 (Alomone Labs), western blotting for AQP3 or PLD2
T2 sequence (chain, both glycosylated and unglycosylated forms): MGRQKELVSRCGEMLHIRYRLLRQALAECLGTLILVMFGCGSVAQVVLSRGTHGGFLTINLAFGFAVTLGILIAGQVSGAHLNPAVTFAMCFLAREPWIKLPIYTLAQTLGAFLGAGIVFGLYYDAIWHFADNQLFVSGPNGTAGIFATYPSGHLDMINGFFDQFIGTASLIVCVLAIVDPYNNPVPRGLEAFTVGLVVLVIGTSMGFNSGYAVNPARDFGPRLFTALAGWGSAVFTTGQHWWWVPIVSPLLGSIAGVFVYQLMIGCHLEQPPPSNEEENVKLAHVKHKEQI

[3] = target: phospholipase D2 (PLD2), endogenous in immortalized human corneal epithelial (IHCE) cells (human (endogenous in IHCE cells)) (UniProt O14939); experiment: as above
[4] = target: His-tagged full-length mouse PLD2 (mouse) (UniProt P97813); experiment: co-IP; Sf9 cells infected 48 h with baculovirus for AQP3-GST, PLD2-His or both; lysed in RIPA buffer, precleared; IP with anti-GST or anti-PLD2 antibody 2 h at 4°C, IgG-coated Dynal beads, four washes with RIPA buffer; immunoblot with anti-GST or anti-His

His-tagged full-length mouse PLD2 (from UniProt P97813 1-933) (enzyme)
binding [1]: binds

phospholipase D2 (PLD2), endogenous in immortalized human corneal epithelial (IHCE) cells (from UniProt O14939 1-933) (enzyme)
binding [2]: binds

B1: aquaporin-3 (AQP3), endogenous in immortalized human corneal epithelial (IHCE) cells (protein, UniProt Q92482 1-292)
chain: T2 sequence (chain, both glycosylated and unglycosylated forms)
modifications: both glycosylated and unglycosylated forms
binding [3]: binds

B2: GST-tagged mouse AQP3 (protein, UniProt Q8R2N1 1-292)
chain: T1 sequence
binding [4]: binds
